Laboratory results from the supplement of paper PMC10849652.
The list shows a part of the results.

By UniProt entry, the sequences of proteins in these tests, tags left out. Where a name states a change or a piece, a line headed by the entry shows the natural chain unless it says otherwise.
UniProt P14174: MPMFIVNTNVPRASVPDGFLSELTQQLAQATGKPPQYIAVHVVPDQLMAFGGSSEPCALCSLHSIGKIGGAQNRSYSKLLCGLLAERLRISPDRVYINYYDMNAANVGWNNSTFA
UniProt P08473: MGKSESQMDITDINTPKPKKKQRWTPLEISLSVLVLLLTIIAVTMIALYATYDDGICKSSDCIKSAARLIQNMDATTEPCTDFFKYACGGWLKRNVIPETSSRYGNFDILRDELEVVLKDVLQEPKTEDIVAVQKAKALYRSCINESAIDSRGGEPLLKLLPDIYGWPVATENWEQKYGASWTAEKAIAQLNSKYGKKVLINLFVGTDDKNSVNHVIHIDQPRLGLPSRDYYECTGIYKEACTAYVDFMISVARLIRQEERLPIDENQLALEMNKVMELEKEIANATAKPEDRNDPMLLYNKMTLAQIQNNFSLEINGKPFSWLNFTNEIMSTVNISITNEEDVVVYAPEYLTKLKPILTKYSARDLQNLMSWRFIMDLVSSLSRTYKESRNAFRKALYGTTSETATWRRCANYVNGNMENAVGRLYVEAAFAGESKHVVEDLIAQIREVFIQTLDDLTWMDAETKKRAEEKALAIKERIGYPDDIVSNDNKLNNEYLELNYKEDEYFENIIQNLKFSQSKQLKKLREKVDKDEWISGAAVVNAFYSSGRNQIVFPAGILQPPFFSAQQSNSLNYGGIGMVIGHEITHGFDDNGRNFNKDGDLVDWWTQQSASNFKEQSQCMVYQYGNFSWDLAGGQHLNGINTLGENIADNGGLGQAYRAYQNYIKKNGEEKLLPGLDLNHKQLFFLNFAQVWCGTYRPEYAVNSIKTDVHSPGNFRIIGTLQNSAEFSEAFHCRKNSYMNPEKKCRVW
UniProt Q9NZW5: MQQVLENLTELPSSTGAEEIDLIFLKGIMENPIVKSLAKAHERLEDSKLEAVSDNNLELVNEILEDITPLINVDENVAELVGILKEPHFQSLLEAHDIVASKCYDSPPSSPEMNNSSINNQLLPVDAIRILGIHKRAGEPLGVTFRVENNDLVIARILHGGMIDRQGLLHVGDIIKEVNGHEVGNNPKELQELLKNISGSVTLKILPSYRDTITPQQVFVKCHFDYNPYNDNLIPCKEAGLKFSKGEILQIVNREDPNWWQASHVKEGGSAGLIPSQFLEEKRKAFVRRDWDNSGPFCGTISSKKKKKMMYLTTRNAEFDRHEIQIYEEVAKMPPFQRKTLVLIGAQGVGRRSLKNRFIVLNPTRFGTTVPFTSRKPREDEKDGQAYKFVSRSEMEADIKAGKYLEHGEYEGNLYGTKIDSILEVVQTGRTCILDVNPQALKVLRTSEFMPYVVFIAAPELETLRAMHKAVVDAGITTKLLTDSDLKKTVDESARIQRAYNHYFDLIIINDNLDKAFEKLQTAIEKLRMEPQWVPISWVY
UniProt Q96BX8: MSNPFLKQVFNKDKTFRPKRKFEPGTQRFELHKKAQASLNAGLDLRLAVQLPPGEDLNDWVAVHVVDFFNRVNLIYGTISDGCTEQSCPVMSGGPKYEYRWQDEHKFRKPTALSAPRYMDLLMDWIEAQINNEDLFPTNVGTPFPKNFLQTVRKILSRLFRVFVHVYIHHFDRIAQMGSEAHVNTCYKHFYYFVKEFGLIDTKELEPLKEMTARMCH
UniProt Q14165: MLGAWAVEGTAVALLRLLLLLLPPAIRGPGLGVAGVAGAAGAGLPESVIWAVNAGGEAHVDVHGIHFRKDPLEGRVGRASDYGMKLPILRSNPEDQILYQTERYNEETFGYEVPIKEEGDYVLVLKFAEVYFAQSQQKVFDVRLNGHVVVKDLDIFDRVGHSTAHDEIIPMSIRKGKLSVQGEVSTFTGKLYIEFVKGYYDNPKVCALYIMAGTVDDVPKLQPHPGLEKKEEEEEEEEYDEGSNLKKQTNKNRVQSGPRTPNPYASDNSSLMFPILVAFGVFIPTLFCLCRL
UniProt Q9BVC4, whole entry, looked up: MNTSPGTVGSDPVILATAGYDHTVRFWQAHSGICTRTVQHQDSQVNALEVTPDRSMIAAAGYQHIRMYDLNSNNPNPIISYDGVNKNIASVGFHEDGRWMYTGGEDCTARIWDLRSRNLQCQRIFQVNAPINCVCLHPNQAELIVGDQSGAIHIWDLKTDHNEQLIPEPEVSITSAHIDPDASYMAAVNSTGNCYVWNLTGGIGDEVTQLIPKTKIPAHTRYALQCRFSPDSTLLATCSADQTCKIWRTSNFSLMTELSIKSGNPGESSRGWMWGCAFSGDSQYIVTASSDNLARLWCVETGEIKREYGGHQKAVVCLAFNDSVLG
UniProt O75970: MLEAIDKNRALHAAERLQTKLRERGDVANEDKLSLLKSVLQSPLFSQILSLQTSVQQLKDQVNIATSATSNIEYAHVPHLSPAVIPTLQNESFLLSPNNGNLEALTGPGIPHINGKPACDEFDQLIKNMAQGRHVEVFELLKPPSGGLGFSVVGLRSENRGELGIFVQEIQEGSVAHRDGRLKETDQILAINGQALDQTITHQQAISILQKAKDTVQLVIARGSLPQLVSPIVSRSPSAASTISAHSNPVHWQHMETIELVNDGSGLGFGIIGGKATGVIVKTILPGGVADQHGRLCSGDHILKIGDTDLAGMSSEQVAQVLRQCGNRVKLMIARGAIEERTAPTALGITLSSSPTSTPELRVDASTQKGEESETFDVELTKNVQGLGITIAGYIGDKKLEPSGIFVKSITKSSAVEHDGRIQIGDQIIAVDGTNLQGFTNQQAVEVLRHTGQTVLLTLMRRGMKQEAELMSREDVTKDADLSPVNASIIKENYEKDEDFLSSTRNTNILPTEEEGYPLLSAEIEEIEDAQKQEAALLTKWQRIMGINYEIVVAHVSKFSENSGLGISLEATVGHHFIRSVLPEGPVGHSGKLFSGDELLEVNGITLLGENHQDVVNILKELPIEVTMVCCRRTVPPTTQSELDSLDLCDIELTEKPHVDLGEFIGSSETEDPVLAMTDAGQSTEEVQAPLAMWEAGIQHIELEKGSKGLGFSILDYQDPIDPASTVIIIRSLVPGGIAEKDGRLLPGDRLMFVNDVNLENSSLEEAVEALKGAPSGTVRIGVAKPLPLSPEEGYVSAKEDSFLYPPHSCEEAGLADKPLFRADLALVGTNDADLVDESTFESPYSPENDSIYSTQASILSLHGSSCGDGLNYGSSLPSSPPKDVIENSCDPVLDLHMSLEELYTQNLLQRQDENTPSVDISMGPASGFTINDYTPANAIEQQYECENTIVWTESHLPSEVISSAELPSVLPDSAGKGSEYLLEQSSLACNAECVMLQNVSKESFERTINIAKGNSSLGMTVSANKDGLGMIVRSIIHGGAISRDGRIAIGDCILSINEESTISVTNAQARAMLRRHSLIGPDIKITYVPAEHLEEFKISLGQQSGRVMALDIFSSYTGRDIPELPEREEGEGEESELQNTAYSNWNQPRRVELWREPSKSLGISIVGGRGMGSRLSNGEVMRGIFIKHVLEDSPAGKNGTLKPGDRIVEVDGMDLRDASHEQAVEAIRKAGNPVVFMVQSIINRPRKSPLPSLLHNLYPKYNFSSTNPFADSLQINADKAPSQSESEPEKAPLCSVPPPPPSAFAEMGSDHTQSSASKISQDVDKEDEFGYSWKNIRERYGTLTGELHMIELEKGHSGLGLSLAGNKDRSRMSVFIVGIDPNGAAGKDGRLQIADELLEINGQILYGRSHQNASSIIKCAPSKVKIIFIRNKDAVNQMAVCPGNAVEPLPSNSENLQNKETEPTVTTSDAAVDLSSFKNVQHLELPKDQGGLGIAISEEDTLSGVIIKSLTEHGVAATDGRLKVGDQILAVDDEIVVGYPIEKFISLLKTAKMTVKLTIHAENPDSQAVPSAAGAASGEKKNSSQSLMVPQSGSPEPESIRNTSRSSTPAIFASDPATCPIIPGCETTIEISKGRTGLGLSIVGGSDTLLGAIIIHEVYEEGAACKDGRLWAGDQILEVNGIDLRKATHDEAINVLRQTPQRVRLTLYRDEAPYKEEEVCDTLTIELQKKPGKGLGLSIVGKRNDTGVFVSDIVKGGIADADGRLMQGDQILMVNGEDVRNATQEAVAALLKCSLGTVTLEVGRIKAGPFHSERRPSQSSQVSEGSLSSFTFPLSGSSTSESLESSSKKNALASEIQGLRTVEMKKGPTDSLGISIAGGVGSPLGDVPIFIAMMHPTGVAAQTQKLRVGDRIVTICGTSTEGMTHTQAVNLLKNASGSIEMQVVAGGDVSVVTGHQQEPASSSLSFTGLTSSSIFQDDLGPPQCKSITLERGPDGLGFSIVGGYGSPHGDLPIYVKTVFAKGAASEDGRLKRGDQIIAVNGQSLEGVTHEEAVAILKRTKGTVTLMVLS
UniProt A9UHW6: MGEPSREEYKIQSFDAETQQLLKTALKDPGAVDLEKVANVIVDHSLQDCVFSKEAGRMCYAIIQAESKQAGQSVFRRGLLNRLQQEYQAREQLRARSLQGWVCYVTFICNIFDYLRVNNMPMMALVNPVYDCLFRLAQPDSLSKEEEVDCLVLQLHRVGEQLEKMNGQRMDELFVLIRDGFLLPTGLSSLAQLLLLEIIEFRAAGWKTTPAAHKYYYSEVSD
UniProt O96007: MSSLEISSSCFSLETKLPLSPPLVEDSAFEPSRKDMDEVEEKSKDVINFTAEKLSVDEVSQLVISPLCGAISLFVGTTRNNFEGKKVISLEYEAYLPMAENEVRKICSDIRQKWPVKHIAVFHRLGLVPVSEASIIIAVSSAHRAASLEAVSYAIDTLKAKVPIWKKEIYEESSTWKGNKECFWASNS
UniProt Q9NQG6: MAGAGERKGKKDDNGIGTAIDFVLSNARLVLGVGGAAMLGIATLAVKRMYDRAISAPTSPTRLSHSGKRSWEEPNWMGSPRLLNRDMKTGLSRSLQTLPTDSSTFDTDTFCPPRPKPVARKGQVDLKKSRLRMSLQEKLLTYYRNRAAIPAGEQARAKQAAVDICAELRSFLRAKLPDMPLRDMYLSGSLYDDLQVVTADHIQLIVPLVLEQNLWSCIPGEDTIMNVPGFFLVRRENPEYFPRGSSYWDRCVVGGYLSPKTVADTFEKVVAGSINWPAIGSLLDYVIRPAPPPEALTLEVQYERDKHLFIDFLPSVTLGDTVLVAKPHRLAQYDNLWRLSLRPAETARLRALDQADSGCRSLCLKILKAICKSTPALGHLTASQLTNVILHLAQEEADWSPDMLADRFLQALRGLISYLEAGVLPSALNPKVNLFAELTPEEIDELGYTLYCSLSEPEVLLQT
UniProt Q4G0A6: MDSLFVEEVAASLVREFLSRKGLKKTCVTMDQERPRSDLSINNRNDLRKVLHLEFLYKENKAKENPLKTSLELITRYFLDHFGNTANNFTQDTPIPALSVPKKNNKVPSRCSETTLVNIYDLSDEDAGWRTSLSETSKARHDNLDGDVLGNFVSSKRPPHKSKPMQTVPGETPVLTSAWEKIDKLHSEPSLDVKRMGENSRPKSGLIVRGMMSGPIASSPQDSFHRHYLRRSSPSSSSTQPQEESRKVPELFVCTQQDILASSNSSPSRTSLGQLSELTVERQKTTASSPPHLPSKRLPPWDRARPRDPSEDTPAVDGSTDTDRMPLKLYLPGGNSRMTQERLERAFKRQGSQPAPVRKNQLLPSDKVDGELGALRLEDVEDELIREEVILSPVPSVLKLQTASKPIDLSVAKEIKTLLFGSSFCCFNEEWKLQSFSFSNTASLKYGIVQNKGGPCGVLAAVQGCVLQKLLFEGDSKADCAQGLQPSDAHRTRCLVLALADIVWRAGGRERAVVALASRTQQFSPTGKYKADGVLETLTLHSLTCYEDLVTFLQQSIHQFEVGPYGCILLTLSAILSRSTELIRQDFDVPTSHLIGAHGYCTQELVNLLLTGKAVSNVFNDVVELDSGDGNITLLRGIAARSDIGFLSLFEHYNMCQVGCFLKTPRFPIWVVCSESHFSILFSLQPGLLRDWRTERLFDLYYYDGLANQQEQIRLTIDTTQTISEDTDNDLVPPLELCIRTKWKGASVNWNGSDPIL
UniProt Q9Y5U8: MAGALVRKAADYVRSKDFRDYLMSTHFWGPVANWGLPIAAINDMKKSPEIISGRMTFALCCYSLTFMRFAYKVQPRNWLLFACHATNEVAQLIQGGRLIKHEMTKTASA
UniProt Q7Z3K6: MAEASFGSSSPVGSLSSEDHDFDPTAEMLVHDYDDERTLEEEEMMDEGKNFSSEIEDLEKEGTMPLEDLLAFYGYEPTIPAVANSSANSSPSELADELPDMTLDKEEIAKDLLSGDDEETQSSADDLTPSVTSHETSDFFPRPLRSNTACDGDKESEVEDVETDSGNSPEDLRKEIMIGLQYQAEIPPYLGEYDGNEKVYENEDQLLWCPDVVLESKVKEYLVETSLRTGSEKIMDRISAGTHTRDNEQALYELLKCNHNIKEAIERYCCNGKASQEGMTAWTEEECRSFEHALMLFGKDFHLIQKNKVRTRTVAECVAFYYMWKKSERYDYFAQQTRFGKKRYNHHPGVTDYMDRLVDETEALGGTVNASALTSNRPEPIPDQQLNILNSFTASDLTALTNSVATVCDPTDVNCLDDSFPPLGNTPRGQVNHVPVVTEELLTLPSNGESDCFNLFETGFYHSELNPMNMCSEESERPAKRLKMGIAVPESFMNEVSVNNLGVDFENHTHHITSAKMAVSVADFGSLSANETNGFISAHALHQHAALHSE

Legend:
Assay in all cases: log2 fold change, soluble protein after heating vs DMSO (PISA); higher = thermal stabilisation; K562 lysate, 10 uM; active = over 0.2 and 3.5 SD of the protein, either way, in both replicates (recomputed)
[1] = compound: Cc1cn(-c2cc(NC(=O)c3ccc(C)c(Nc4nccc(-c5cccnc5)n4)c3)cc(C(F)(F)F)c2)cn1 [nilotinib]
Summary of the method: (§1)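 Thermal stability, expressed as log-two fold change relative to solvent controls, is given from duplicates. Crude K562 extract in PBS pH 7.4 with 1 mM MgCl2, at 1 mg/mL protein, was treated with 10 μM compound for 30 min and heated in aliquots for 3 min across 48°C-58°C. After pooling, adjustment to 0.5% NP-40 at 4°C and centrifugation at 21,000xg for 90 min, supernatant protein was measured by TMTpro 16plex LC-MS/MS with channel sums equalised.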

[2] = compound: Cc1nc(Nc2n[nH]c3c2CN(C(=O)N[C@H](CN(C)C)c2ccccc2)C3(C)C)c2sccc2n1
Summary of the method: as §1

[3] = compound: Cc1nc(Nc2ncc(C(=O)Nc3c(C)cccc3Cl)s2)cc(N2CCN(CCO)CC2)n1 [dasatinib]
Summary of the method: as §1

[4] = compound: Cc1ncc(-c2ccnc(Nc3ccc(S(C)(=O)=O)cc3)n2)n1C(C)C
Summary of the method: as §1

[5] = compound: Cn1cc(-c2ccc3c(c2)CCN3C(=O)Cc2cccc(C(F)(F)F)c2)c2c(N)ncnc21
Summary of the method: as §1

[6] = compound: Cn1cc(CNCC2CCN(c3ncc(C(=O)NO)cn3)CC2)c2ccccc21 [quisinostat]
Summary of the method: as §1

[7] = compound: Cn1cncc1[C@@](N)(c1ccc(Cl)cc1)c1ccc2c(c1)c(-c1cccc(Cl)c1)cc(=O)n2C [tipifarnib]
Summary of the method: as §1

[8] = compound: NC(=O)Nc1cc(-c2cccc(F)c2)sc1C(=O)N[C@H]1CCCNC1
Summary of the method: as §1

[9] = compound: NC(=O)c1cnc(N[C@@H]2CCCC[C@@H]2N)nc1Nc1cccc(-n2nccn2)c1
Summary of the method: as §1

[10] = compound: NC1(c2ccc(-c3nc4ccn5c(=O)[nH]nc5c4cc3-c3ccccc3)cc2)CCC1
Summary of the method: as §1

Row | Target | log2 fold change [1] | log2 fold change [2] | log2 fold change [3] | log2 fold change [4] | log2 fold change [5] | log2 fold change [6] | log2 fold change [7] | log2 fold change [8] | log2 fold change [9] | log2 fold change [10]
1 | MPST isoform 2 (UniProt P25325) | inactive: 0.006 | inactive: -0.002 | inactive: 0.001 | inactive: -0.003 | inactive: -0.014 | inactive: 0 | inactive: 0.07 | inactive: 0.014 | inactive: 0.01 | inactive: 0
2 | MON2 isoform 5 (UniProt Q7Z3U7) | inactive: -0.006 | inactive: -0.021 | inactive: -0.072 | inactive: 0.018 | inactive: 0.039 | inactive: -0.074 | inactive: -0.004 | inactive: 0.021 | inactive: 0.005 | inactive: -0.003
3 | MIPEP (UniProt Q99797) | inactive: 0.002 | inactive: 0.024 | inactive: 0.005 | inactive: -0.008 | inactive: 0.031 | active: 0.45 | inactive: 0.033 | inactive: -0.016 | inactive: 0.01 | inactive: 0.054
4 | MIF (UniProt P14174) | inactive: 0.036 | inactive: -0.042 | inactive: 0.001 | inactive: -0.007 | inactive: -0.009 | inactive: 0.058 | inactive: 0.061 | inactive: 0.035 | inactive: 0 | inactive: 0.033
5 | MME (UniProt P08473) | inactive: -0.09 | inactive: 0.082 | active: -0.513 | inactive: 0.021 | inactive: 0.104 | inactive: -0.02 | inactive: -0.031 | inactive: 0.085 | inactive: 0.061 | inactive: -0.014
6 | MPP6 (UniProt Q9NZW5) | inactive: -0.023 | inactive: 0.022 | inactive: -0.05 | inactive: -0.008 | inactive: -0.004 | inactive: -0.032 | inactive: 0.003 | inactive: 0 | inactive: 0.019 | inactive: -0.036
7 | MRM1 (UniProt Q6IN84) | inactive: -0.027 | inactive: -0.018 | inactive: 0.011 | inactive: -0.067 | inactive: -0.028 | inactive: 0.009 | inactive: -0.025 | inactive: 0.005 | inactive: 0 | inactive: 0.015
8 | MICU1 isoform 3 (UniProt Q9BPX6) | inactive: 0.01 | inactive: -0.044 | inactive: -0.02 | inactive: -0.015 | inactive: 0.027 | inactive: 0.002 | inactive: -0.015 | inactive: -0.026 | inactive: 0.06 | inactive: -0.021
9 | MOB3A (UniProt Q96BX8) | inactive: -0.002 | inactive: -0.002 | inactive: 0.013 | inactive: -0.038 | inactive: 0.04 | inactive: 0.042 | inactive: 0.034 | inactive: 0.018 | inactive: 0.011 | inactive: -0.06
10 | MRPL2 (UniProt Q5T653) | inactive: -0.04 | inactive: 0.019 | inactive: -0.032 | inactive: 0.04 | inactive: -0.047 | inactive: 0.01 | inactive: -0.05 | inactive: -0.003 | inactive: 0.022 | inactive: -0.063
11 | MICU2 (UniProt Q8IYU8) | inactive: -0.052 | inactive: 0.02 | inactive: -0.026 | inactive: 0.048 | inactive: -0.015 | inactive: -0.03 | inactive: -0.043 | inactive: 0.07 | inactive: 0.105 | inactive: -0.009
12 | MIA3 (UniProt Q5JRA6) | inactive: -0.021 | inactive: -0.011 | inactive: -0.045 | inactive: 0.02 | inactive: 0.043 | inactive: 0.017 | inactive: -0.008 | inactive: -0.012 | inactive: 0.031 | inactive: 0.019
13 | MON1A (UniProt Q86VX9) | inactive: 0.042 | inactive: 0.015 | inactive: -0.015 | inactive: 0.057 | inactive: 0.014 | inactive: 0.01 | inactive: 0.025 | inactive: 0.04 | inactive: -0.008 | inactive: 0.011
14 | MMADHC (UniProt Q9H3L0) | inactive: -0.157 | inactive: 0.001 | inactive: -0.018 | inactive: 0.033 | inactive: 0.041 | inactive: -0.052 | inactive: -0.012 | inactive: 0.007 | inactive: 0.034 | inactive: 0.051
15 | MICAL2 (UniProt O94851) | inactive: 0.087 | inactive: 0.034 | inactive: -0.12 | inactive: 0.077 | inactive: -0.083 | inactive: -0.022 | inactive: -0.045 | inactive: 0.033 | inactive: 0.167 | inactive: 0.033
16 | MLEC (UniProt Q14165) | inactive: -0.033 | inactive: 0.003 | inactive: -0.036 | inactive: -0.008 | inactive: 0.007 | inactive: 0.017 | inactive: 0.005 | inactive: -0.019 | inactive: -0.009 | inactive: -0.025

Single records (already shown). Values in the order: log2 fold change [1] | log2 fold change [2] | log2 fold change [3] | log2 fold change [4] | log2 fold change [5] | log2 fold change [6] | log2 fold change [7] | log2 fold change [8] | log2 fold change [9] | log2 fold change [10]
MIF (UniProt P14174) is entered as inactive: 0.036 | inactive: -0.042 | inactive: 0.001 | inactive: -0.007 | inactive: -0.009 | inactive: 0.058 | inactive: 0.061 | inactive: 0.035 | inactive: 0 | inactive: 0.033
MRPL2 (UniProt Q5T653) is entered as inactive: -0.04 | inactive: 0.019 | inactive: -0.032 | inactive: 0.04 | inactive: -0.047 | inactive: 0.01 | inactive: -0.05 | inactive: -0.003 | inactive: 0.022 | inactive: -0.063

Carrying on:

Row | Target | log2 fold change [1] | log2 fold change [2] | log2 fold change [3] | log2 fold change [4] | log2 fold change [5] | log2 fold change [6] | log2 fold change [7] | log2 fold change [8] | log2 fold change [9] | log2 fold change [10]
17 | MLST8 (UniProt Q9BVC4) | inactive: -0.011 | inactive: -0.006 | inactive: 0.046 | inactive: 0.079 | inactive: -0.041 | inactive: -0.058 | inactive: 0.076 | inactive: 0.043 | inactive: -0.065 | inactive: -0.067
18 | MPDZ (UniProt O75970) | inactive: -0.097 | inactive: 0.245 | inactive: -0.082 | inactive: -0.059 | inactive: -0.049 | inactive: -0.084 | inactive: 0.328 | inactive: -0.057 | inactive: -0.041 | inactive: 0.112
19 | MICAL3 (UniProt Q7RTP6) | inactive: 0.021 | inactive: 0.022 | inactive: -0.003 | inactive: -0.012 | inactive: 0.004 | inactive: -0.012 | inactive: -0.002 | inactive: -0.003 | inactive: 0.026 | inactive: -0.011
20 | MIF4GD isoform 3 (UniProt A9UHW6) | inactive: -0.036 | inactive: 0.031 | inactive: 0.056 | inactive: -0.015 | inactive: 0.039 | inactive: -0.04 | inactive: 0.016 | inactive: 0.052 | inactive: -0.032 | inactive: -0.007
21 | MICB, A0A140T979 | inactive: -0.044 | inactive: 0.042 | inactive: 0.024 | inactive: 0.033 | inactive: -0.055 | inactive: -0.06 | inactive: -0.025 | inactive: -0.004 | inactive: 0.491 | inactive: 0.21
22 | MOCS2 (UniProt O96007) | inactive: 0.01 | inactive: -0.035 | inactive: 0.012 | inactive: -0.036 | inactive: -0.019 | inactive: 0.02 | inactive: 0.025 | inactive: -0.063 | inactive: -0.004 | inactive: -0.024
23 | MRPL11 (UniProt Q9Y3B7) | inactive: 0.011 | inactive: -0.017 | inactive: -0.064 | inactive: 0.012 | inactive: 0.017 | inactive: 0.004 | inactive: -0.048 | inactive: 0.048 | inactive: -0.033 | inactive: -0.06
24 | MGST2 (UniProt Q99735) | inactive: 0.02 | inactive: 0.038 | inactive: -0.096 | inactive: 0.027 | inactive: 0.011 | inactive: -0.053 | inactive: -0.104 | inactive: -0.022 | inactive: 0.034 | inactive: -0.012
25 | MIEF1 (UniProt Q9NQG6) | inactive: 0.038 | inactive: -0.072 | inactive: 0.04 | inactive: 0.017 | inactive: -0.014 | inactive: -0.108 | inactive: -0.134 | inactive: 0.082 | inactive: 0.004 | inactive: -0.016
26 | MINDY4 (UniProt Q4G0A6) | inactive: -0.088 | inactive: 0.171 | inactive: -0.118 | inactive: 0.028 | inactive: -0.244 |  | inactive: 0.078 |  |  | 
27 | MIIP (UniProt Q5JXC2) |  |  |  |  |  | inactive: -0.02 |  | inactive: 0.015 |  | inactive: -0.165
28 | MPC1 (UniProt Q9Y5U8) |  |  | inactive: 0 |  | inactive: 0.03 | inactive: 0.036 |  | inactive: 0.068 | inactive: -0.033 | inactive: 0.054
29 | MIGA2 (UniProt Q7L4E1) |  |  | inactive: -0.056 |  | inactive: -0.007 |  |  |  |  | inactive: -0.239
30 | MILR1 (UniProt Q7Z6M3) |  |  |  |  |  | inactive: 0.003 |  | inactive: 0.055 |  | inactive: -0.198
31 | MIER3 isoform 2 (UniProt Q7Z3K6) | inactive: -0.107 | inactive: 0.032 | inactive: -0.023 | inactive: 0.019 | inactive: -0.016 | inactive: 0.037 | inactive: 0.016 | inactive: 0.051 |  | inactive: -0.011
32 | MRPL22 (UniProt Q9NWU5) | inactive: 0.04 | inactive: 0.017 |  | inactive: 0.03 |  | inactive: 0.025 | inactive: -0.003 | inactive: -0.001 | inactive: -0.073 | inactive: 0.081
